Measured data: PubChem BioAssay AID743454 (Peter MacCallum Cancer Centre, 2014)
Here is one part, drawn at random, of about 18,000 deposited reagents. Of all reagents, 450 (2.5%) got an active call. 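Single biological run; no consistent viability z cut-off exists, so the class columns, not z-scores, define the calls.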 Reagent sequences are not shown.

- Assay: 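Knock-downs lowering viability or raising caspase 3/7 activity in vorinostat-treated resistant cells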 (primary screen)
- Cells: human HCT116-VR colon cancer cells, selected for vorinostat resistance
- Knock-down reagent: siRNA pool against human genes, 40 nM siRNA pool
- Time to read-out: vorinostat for 24 h, read-out about 72 h after transfection
- Treatment: vorinostat at 2.5 µM final
- Read-out: 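Cell viability by CellTiter-Fluor and caspase 3/7 activity by luminescence, each scaled to mock wells per plate, duplicates averaged, then robust z-scored over all plates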
- Reading the numbers: viability robust z-score: higher = more viable cells than screen typical; caspase robust z-score: higher = more caspase 3/7 activity than screen typical
- Call rule: 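Hits are knock-downs in viability class RV1/RV2 or caspase class CA1/CA2, excluding ones that killed cells in the no-drug cell-count arm; hits then retested with single siRNAs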

The opening 6 entries, to show the layout:
| gene | viability hit class | caspase hit class | viability robust z-score | caspase robust z-score | call |
| --- | --- | --- | --- | --- | --- |
| CASQ1 | no change | no change | -1.56 | -0.06 | inactive |
| EIF4G2 | no change | no change | -0.19 | 2.56 | inactive |
| S100A7 | no change | no change | -0.02 | -0.45 | inactive |
| POLR3GL | no change | no change | 1.36 | 0.86 | inactive |
| ABHD17AP1 | no change | no change | 0.18 | 0.72 | inactive |
| BTBD16 | no change | no change | 0.56 | -0.45 | inactive |

Results, repeating the preview:
| gene | viability hit class | caspase hit class | viability robust z-score | caspase robust z-score | call |
| --- | --- | --- | --- | --- | --- |
| CASQ1 | no change | no change | -1.56 | -0.06 | inactive |
| EIF4G2 | no change | no change | -0.19 | 2.56 | inactive |
| S100A7 | no change | no change | -0.02 | -0.45 | inactive |
| POLR3GL | no change | no change | 1.36 | 0.86 | inactive |
| ABHD17AP1 | no change | no change | 0.18 | 0.72 | inactive |
| BTBD16 | no change | no change | 0.56 | -0.45 | inactive |
| CLN8 | no change | no change | 1.66 | 0.15 | inactive |
| RPL36A | no change | no change | -4.5 | -0.6 | inactive |
| SIT1 | no change | no change | -2.08 | 1.25 | inactive |
| ZNF644 | no change | no change | 1.92 | -0.56 | inactive |
| ZNF569 | no change | no change | 1.36 | -0.4 | inactive |
| KIF21A | no change | no change | -1.98 | -0.6 | inactive |
| IPPK | no change | no change | 0.26 | 0.6 | inactive |
| UBR1 | no change | no change | -0.45 | 0.4 | inactive |
| ABCB7 | no change | no change | -0.55 | -0.44 | inactive |
| RNF212 | no change | no change | 0.05 | -1.17 | inactive |
| HCCS | no change | no change | 1.8 | -1.19 | inactive |
| METTL16 | no change | no change | -0.82 | -0.75 | inactive |
| CD151 | no change | no change | 1.66 | 0.26 | inactive |
| SPANXC | no change | no change | -1.4 | 0.46 | inactive |
| SON | no change | no change | -3.54 | 4.22 | inactive |
| FIP1L1 | no change | no change | -2.04 | 1.66 | inactive |
| TAFA5 | no change | no change | 0.46 | 1.01 | inactive |
| DLGAP1 | no change | no change | 0.73 | -0.34 | inactive |
| NOX4 | no change | no change | -0.5 | 1.48 | inactive |
| OPN1MW | no change | no change | -0.73 | -0.62 | inactive |
| MAN1C1 | no change | no change | 0.05 | 0.93 | inactive |
| TP53I11 | no change | no change | 0.4 | 2.44 | inactive |
| UROD | no change | no change | -1.2 | 1.46 | inactive |
| CATSPERG | no change | no change | -1.29 | -1.12 | inactive |
| KRCC1 | no change | no change | -0.08 | 0.42 | inactive |
| DMWD | no change | no change | 0.21 | 0.28 | inactive |
| LRIT3 | no change | no change | -0.14 | -1.07 | inactive |
| PLPPR1 | no change | no change | -0.2 | -0.99 | inactive |
| KLK14 | no change | no change | -0.97 | 1.51 | inactive |
| VPS9D1 | no change | no change | 0.34 | -0.97 | inactive |
| LRRC28 | no change | no change | -0.14 | 0.56 | inactive |
| FAM216A | no change | no change | 1.62 | 0.01 | inactive |
| CDH22 | no change | no change | 1.6 | 1.21 | inactive |
| NCF4 | no change | no change | 1.37 | 2.63 | inactive |
| H2BC4 | no change | no change | 0.16 | 0.2 | inactive |
| CERS4 | no change | no change | -0.24 | 0.65 | inactive |
| OR2W1 | no change | no change | 0.61 | -0.43 | inactive |
| MRPL48 | no change | no change | 0.44 | 1.94 | inactive |
| RNF39 | no change | no change | -0.22 | 0.8 | inactive |
| UPK2 | no change | no change | 0.08 | 0.1 | inactive |
| P2RX1 | no change | no change | -1.84 | 5.04 | inactive |
| KRT83 | no change | no change | 0.33 | 0.56 | inactive |
| SLC46A2 | no change | no change | -0.57 | 1.8 | inactive |
| UQCC4 | no change | no change | -0.64 | -0.88 | inactive |
| CLEC4G | no change | no change | 0.83 | -0.6 | inactive |
| HCN4 | no change | no change | -0.08 | -0.02 | inactive |
| PSMB2 | no change | no change | -3.67 | 2.91 | inactive |
| SIRT7 | no change | no change | 1.21 | 1.27 | inactive |
| SDCBP | no change | no change | 0.36 | -0.79 | inactive |
| KRT28 | no change | no change | 1.69 | 1.84 | inactive |
| PDHA1 | no change | no change | -0.15 | 1.1 | inactive |
| ZNF846 | no change | no change | 1.5 | 0.43 | inactive |
| CLDN20 | no change | no change | 2.83 | 0.07 | inactive |
| TRAPPC4 | no change | no change | -0.32 | -0.31 | inactive |
| ZNF668 | no change | no change | 0.2 | -1.04 | inactive |
| APRG1 | no change | no change | -1 | 0.08 | inactive |
| SETD1A | no change | no change | -0.29 | -0.64 | inactive |
| EHD4 | no change | no change | -0.13 | 2.22 | inactive |
| DDX3X | no change | no change | -1.06 | -0.73 | inactive |
| SLC6A5 | no change | no change | -0.47 | -0.68 | inactive |
| FYB2 | no change | no change | -0.85 | 4.21 | inactive |
| TERF2IP | no change | no change | 0.61 | -0.54 | inactive |
| GABRG2 | no change | no change | -0.72 | 0.31 | inactive |
| IDI1 | no change | no change | 0.57 | -0.92 | inactive |
| TES | no change | no change | -1.12 | -0.84 | inactive |
| BPIFB4 | no change | no change | 0.2 | 2.04 | inactive |
| EVA1A | no change | no change | -0.64 | 3.44 | inactive |
